The text below walks through data of PubChem BioAssay AID493014 (National Center for Advancing Translational Sciences (NCATS), 2011).

Each structure is given as a SMILES string. The list shows a part of the results. Shown are side measurements of this screen, not its main read-out; they come without a call. Most of these compounds were active or inconclusive in the main read-out, so they are no random draw. Potencies come from curve fits of mixed quality, noted in brackets.

In general, AC50 refers to the midpoint of the concentration-response curve, whichever way the signal moves.

The assay can be described thus: qHTS Assay to Find Inhibitors of Chronic Active B-Cell Receptor Signaling. The following applies: ABC-DLBCL IkBa-CBG/CBR reporter, luminescence ratio (green luciferase fused to IkBa over red control in TMD8 lymphoma cells), 4 h; measured here: CBR red luminescence, cell number. Put shortly: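 Compounds up to 46 uM were incubated four hours with TMD8 cells whose green CBG68 luciferase is fused to IkappaBalpha; red CBR luminescence normalised the signal, and concentration-effect curves were fitted to fusion, red and ratio data.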
A general note: qHTS replaces the single test concentration by a dilution series.
For the compound `Cc1cc(C(=O)Nc2ccon2)cs1`, the AC50 is 0.92 µM [falling, full curve, poor fit].

With `c1ccc2nc(-c3nc4ccccc4o3)ccc2c1`, the AC50 was 0.326 µM [falling, full curve, poor fit].

As for `O=C(NC1CC(=O)N(c2ccccc2)C1)C1CCCC1` (stereo not drawn), the AC50 is 35.5 µM [rising, partial curve, poor fit].

With `Cc1nc(-c2ccccc2)nc2[nH]c(C(C)C)cc(=O)c12`, the AC50 is 1.46 µM [falling, full curve, poor fit].

Take `O=C(Nc1cc2c(cc1Br)OCCO2)c1ccco1`: the AC50 is 0.092 µM [rising, full curve, poor fit].

Take `O=c1c2ccccc2nc2n1C(CSCc1cccc(C(F)(F)F)c1)CS2` (stereo not drawn): the AC50 was 3.16 µM [falling, full curve, poor fit].

For `COc1ccc(Cl)cc1N(CC(=O)Nc1ccccc1C(=O)NCc1ccco1)S(C)(=O)=O`, the concentration at half-maximal activity (AC50) is 16.4 µM [falling, partial curve, poor fit].

Regarding `CC(=O)Nc1cccc(OCc2cnc(Cl)s2)c1`, the AC50 is 22.4 µM [rising, single point].

`c1ccc(-c2nnc(-c3c[nH]c4ccccc34)nc2-c2ccccc2)cc1`: the AC50 was 1.84 µM [rising, full curve, poor fit].

Turning to `Cc1ccc(NC(=O)CSc2ncnc3ccccc23)cc1S(=O)(=O)N1CCCCCC1`, the AC50 was 4.11 µM [falling, partial curve].

`CCCCCCOc1ccc(N2C(=O)CC(N(CCc3ccc(S(N)(=O)=O)cc3)C(C)=O)C2=O)cc1` (stereo not drawn): the AC50 was 12.6 µM [falling, partial curve].

As to `O=C(/C=C/c1ccccc1)NCCSCc1ccccc1Cl`, the AC50 was 2.91 µM [rising, partial curve, poor fit].

Regarding `COc1ccccc1-c1nc(NC(C)=O)n[nH]1`, the AC50 was 10 µM [falling, partial curve].

Regarding `CCOC(=O)Cc1csc(N/N=C\c2ccc(N(C)C)cc2)n1`, the AC50 was 35.5 µM [rising, single point].

As for `O=C(CSC1=NS(=O)(=O)c2cc(Cl)ccc2N1)Nc1ccccc1F`, the AC50 is 25.9 µM [falling, single point].

With `Cn1c(SCC(=O)Nc2ccc3c(c2)oc2ccccc23)nnc1-c1ccccc1`, the AC50 is 1.64 µM [rising, partial curve, poor fit].

As for `COc1cc(/C=N/n2c(C3CCCCC3)n[nH]c2=S)cc(OC)c1O`, the AC50 was 0.562 µM [rising, full curve, poor fit].

As for `COc1cccc(CN2CCN(Cc3nc4c(s3)CCCC4)CC2CCO)c1` (stereo not drawn), the half-maximal activity concentration (AC50) was 35.5 µM [rising, single point].
